The list shows a part of the results.
biological target: T1, OsSMF1 (Oryza sativa, UniProt Q6ZLB0 1-436); assay: protein-binding microarray (RPBM); PBS, 2% BSA, 51.3 ng/ul salmon testes DNA, 50 uM zinc acetate, 200 nM TF, 25 C, 1 h; high values mean tight binding; conditions: protein: recombinant; tags: N-terminal polyhistidine and DsRed monomer fusion (pET32a); chain copies: 2; label: CyDye5-dUTP incorporated in the synthesized complementary strand; 3' TTTTT single-stranded linker to array surface; dsDNA, one strand shown
T1 sequence: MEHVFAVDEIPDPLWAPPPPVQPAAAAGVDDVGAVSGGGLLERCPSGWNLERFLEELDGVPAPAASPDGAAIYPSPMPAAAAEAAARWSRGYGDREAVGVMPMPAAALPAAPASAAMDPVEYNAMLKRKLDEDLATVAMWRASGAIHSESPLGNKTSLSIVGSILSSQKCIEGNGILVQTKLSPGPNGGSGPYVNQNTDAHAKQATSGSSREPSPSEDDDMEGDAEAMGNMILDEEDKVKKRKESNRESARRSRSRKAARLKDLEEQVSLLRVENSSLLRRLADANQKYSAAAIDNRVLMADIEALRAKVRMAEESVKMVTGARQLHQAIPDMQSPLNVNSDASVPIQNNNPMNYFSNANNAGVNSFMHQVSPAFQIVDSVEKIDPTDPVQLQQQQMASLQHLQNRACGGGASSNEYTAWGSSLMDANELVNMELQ
Summary of the method: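 In PBS with 2% BSA, salmon testes DNA and 50 µM zinc acetate, 200 nM protein was incubated on a custom Agilent array at 25 °C for 1 h and then washed off. The array had been made double-stranded by primer extension with Cy5-dUTP and blocked with 2% BSA. The proteins were transcription factors fused N-terminally to polyhistidine and DsRed, expressed in E. coli BL21-CodonPlus and purified on Ni–NTA. The binding signal is per-feature fluorescence intensity (arbitrary units) from an Axon 4000B scanner.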

Sequence | binding signal
GAGATTATGGTTTCGTGGGCTAGCATGGACAATGAAGACTCGGAGTCACCTAGTGCAG | 21900 fluorescence intensity (a.u.)
ATATATATAACACGGGTATCGGATTTGGATTTGCTTGGTACGGAGTCACCTAGTGCAG | 37800 fluorescence intensity (a.u.)
ACACTTGCAGCAAACACATTGACTATCTTTCCTCAACTGGCGGAGTCACCTAGTGCAG | 7780 fluorescence intensity (a.u.)
AGACCCGGAGACTGTGGAGACGCGACGCGAAATCGATCGACGGAGTCACCTAGTGCAG | 29500 fluorescence intensity (a.u.)
TCCCTACATTCCAGCGCCGTGACACATCGGAGGCCTCTGGCGGAGTCACCTAGTGCAG | 6480 fluorescence intensity (a.u.)
CAACTCTCGGGCCCGTCATCAATCGGGCCATGCCATGCCTCGGAGTCACCTAGTGCAG | 3710 fluorescence intensity (a.u.)
TGAAATACTCCACGTAGGTTGTTACGCCACGAGTAGCGACCGGAGTCACCTAGTGCAG | 6200 fluorescence intensity (a.u.)
CCCACTTGGCAGCCTGCGTTGCCGTGCGGACACGTAGCGACGGAGTCACCTAGTGCAG | 5780 fluorescence intensity (a.u.)
TAGGAGTCTTATTTATTGATGATAAGTGTGGTGTACGTGCCGGAGTCACCTAGTGCAG | 3870 fluorescence intensity (a.u.)
TTGTTTATTTAAGGTGTGATTGTATTTGGATCATGTTTTGCGGAGTCACCTAGTGCAG | 3710 fluorescence intensity (a.u.)
GTGGAGTGCGGTGGACGGAGCGGCGGGGCGGGGCGGTCAGCGGAGTCACCTAGTGCAG | 6720 fluorescence intensity (a.u.)
CACCATCGGCGACGCCAAGACACCACATCATCACCACCAACGGAGTCACCTAGTGCAG | 3160 fluorescence intensity (a.u.)
ATAAAGCATCCACATCACCATCCAGCAACTTGCATGAAACCGGAGTCACCTAGTGCAG | 6670 fluorescence intensity (a.u.)
TCTTTAAGTGACCTATGCGTGACGTTGGGAGAATTTAGCCCGGAGTCACCTAGTGCAG | 5340 fluorescence intensity (a.u.)
AGACACAGCACACCCACTCACTCTGCTCACTCTCCCATACCGGAGTCACCTAGTGCAG | 39100 fluorescence intensity (a.u.)
TTCAGCGGGTCACAACTCGATTTTGATTTGGCATCCTCTGCGGAGTCACCTAGTGCAG | 3370 fluorescence intensity (a.u.)
GCCGGTCCATTCTCCGCCCTTCACCGCCTCCGTTGCCGGCCGGAGTCACCTAGTGCAG | 3280 fluorescence intensity (a.u.)
GGAGCTTGAGCGGGTCAAGCCACACAAGGCGTCACGATCACGGAGTCACCTAGTGCAG | 3300 fluorescence intensity (a.u.)
CAAGTCCTGTTTGTTCAGTGAACGCGTGGAGGACGAAGCTCGGAGTCACCTAGTGCAG | 3200 fluorescence intensity (a.u.)
CATTTCCAAATTACATGTATGAATCCAACCAAAACTTTTCCGGAGTCACCTAGTGCAG | 17200 fluorescence intensity (a.u.)
GTTTAATGGGTTGATGTGGCATGCTTACATATAGGTTTTACGGAGTCACCTAGTGCAG | 5830 fluorescence intensity (a.u.)
TACCCGCCCCGGAAGTCGTGGCACGCGAGGATGTGGCGCCCGGAGTCACCTAGTGCAG | 3140 fluorescence intensity (a.u.)
AAATCTCTCTCCACCCTTTCAGCGCGCCACGTGTCCCACACGGAGTCACCTAGTGCAG | 18900 fluorescence intensity (a.u.)

Reformatted comma-delimited: part of the list above
Sequence,binding signal
TGAAATACTCCACGTAGGTTGTTACGCCACGAGTAGCGACCGGAGTCACCTAGTGCAG,6200 fluorescence intensity (a.u.)
CCCACTTGGCAGCCTGCGTTGCCGTGCGGACACGTAGCGACGGAGTCACCTAGTGCAG,5780 fluorescence intensity (a.u.)
TAGGAGTCTTATTTATTGATGATAAGTGTGGTGTACGTGCCGGAGTCACCTAGTGCAG,3870 fluorescence intensity (a.u.)
TTGTTTATTTAAGGTGTGATTGTATTTGGATCATGTTTTGCGGAGTCACCTAGTGCAG,3710 fluorescence intensity (a.u.)
GTGGAGTGCGGTGGACGGAGCGGCGGGGCGGGGCGGTCAGCGGAGTCACCTAGTGCAG,6720 fluorescence intensity (a.u.)
CACCATCGGCGACGCCAAGACACCACATCATCACCACCAACGGAGTCACCTAGTGCAG,3160 fluorescence intensity (a.u.)
ATAAAGCATCCACATCACCATCCAGCAACTTGCATGAAACCGGAGTCACCTAGTGCAG,6670 fluorescence intensity (a.u.)

Source: paper PMC7819943, “Rice protein-binding microarrays: a tool to detect cis-acting elements near promoter regions in rice”
